What all share (experiment): two-hybrid; pairwise: pGBKT7 (GAL4 DNA-binding domain) and pGADT7 (GAL4 activation domain) plasmids in yeast Y187, SD-Leu-Trp; filter lifts for beta-galactosidase with X-Gal (blue colour); negatives monitored for up to 24 h, PERK8 and -9 transformants for shorter times because of some background activity
Assay [1] deals with PERK9 cytosolic kinase domain (Arabidopsis thaliana) (UniProt Q9SX31).
Assay [2] has as its target PERK8 cytosolic kinase domain (Arabidopsis thaliana) (UniProt Q9FFW5).
In assay [3] the target is PERK13 cytosolic kinase domain (Arabidopsis thaliana) (UniProt Q9CAL8).
Assay [4] deals with PERK10 cytosolic kinase domain (Arabidopsis thaliana) (UniProt Q9C660).

Sequences of proteins named here, by UniProt entry; tags and fusion partners are left off. A change or cut given only in a name is not applied to a line headed by its entry.
UniProt Q9SX31: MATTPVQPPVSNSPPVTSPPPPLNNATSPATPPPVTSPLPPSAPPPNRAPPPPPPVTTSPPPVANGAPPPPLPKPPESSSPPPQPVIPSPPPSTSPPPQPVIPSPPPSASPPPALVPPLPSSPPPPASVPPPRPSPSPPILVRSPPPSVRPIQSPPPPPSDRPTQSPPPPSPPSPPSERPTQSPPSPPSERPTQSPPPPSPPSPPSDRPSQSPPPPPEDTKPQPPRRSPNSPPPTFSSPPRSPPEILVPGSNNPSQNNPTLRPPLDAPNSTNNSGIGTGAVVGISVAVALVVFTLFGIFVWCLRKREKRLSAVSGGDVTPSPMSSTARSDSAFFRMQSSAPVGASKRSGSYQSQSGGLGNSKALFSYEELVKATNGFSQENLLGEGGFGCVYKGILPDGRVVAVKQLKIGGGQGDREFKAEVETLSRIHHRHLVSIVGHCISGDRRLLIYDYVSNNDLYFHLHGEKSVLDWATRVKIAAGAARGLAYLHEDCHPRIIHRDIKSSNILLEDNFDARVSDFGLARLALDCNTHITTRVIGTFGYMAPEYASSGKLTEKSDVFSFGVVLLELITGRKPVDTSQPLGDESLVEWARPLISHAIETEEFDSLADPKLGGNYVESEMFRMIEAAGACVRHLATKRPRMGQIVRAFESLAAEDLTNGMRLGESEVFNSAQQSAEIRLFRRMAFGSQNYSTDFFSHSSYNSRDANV
UniProt Q9FFW5: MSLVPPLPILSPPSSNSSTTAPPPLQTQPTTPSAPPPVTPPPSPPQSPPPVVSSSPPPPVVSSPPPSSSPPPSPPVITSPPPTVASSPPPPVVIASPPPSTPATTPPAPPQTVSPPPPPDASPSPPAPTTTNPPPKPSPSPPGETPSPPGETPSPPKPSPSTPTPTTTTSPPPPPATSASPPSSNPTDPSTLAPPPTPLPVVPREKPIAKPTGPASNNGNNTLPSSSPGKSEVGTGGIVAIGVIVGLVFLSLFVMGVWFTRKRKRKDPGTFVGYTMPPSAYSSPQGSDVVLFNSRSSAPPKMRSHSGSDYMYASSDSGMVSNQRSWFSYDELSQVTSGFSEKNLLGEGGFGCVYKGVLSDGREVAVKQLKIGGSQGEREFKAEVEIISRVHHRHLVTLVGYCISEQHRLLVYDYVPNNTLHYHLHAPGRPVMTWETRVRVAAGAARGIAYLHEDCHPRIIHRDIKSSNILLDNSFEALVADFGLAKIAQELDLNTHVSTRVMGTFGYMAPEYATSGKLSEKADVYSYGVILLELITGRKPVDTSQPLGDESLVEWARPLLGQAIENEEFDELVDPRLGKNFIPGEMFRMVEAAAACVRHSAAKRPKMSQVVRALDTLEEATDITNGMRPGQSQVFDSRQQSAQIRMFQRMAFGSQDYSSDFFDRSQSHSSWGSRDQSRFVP
UniProt Q9CAL8: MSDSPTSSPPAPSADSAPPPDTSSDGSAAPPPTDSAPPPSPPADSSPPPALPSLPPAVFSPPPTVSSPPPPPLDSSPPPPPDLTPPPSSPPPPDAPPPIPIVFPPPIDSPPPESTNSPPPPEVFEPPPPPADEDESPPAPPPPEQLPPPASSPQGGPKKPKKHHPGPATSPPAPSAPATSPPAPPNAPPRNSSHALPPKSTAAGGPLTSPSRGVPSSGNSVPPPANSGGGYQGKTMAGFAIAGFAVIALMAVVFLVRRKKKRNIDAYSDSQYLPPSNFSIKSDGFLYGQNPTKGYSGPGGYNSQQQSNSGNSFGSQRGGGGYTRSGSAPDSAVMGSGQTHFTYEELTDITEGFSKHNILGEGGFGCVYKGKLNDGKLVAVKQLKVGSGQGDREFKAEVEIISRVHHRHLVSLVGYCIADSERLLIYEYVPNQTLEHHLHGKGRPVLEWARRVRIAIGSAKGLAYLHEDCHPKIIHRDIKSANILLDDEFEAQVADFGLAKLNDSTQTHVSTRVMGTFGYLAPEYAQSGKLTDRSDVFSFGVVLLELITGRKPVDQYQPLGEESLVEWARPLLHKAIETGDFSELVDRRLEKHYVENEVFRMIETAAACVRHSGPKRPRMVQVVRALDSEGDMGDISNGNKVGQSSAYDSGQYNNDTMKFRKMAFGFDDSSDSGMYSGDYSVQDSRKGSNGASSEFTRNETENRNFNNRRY
UniProt Q9C660: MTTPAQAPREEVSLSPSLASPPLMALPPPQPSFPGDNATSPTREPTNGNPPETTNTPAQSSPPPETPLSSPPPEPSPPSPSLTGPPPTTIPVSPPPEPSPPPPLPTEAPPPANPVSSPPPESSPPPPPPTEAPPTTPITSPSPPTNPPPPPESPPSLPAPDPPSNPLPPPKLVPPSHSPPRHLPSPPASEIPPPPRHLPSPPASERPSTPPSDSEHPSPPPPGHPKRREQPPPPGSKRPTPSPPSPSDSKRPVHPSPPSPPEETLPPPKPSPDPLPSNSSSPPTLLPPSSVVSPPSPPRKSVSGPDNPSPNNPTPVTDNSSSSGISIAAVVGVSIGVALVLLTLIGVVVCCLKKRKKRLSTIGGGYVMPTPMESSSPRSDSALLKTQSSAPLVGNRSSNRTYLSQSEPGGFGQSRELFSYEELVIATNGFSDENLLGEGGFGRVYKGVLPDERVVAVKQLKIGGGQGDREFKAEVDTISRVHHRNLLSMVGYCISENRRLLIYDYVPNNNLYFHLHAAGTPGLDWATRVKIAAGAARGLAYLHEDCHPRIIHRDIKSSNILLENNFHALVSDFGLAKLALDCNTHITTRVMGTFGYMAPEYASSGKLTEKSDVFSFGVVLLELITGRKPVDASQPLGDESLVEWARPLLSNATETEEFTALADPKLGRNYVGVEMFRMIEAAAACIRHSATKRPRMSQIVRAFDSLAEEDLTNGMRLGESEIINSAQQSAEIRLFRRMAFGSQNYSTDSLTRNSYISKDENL

Results are given in words; binding and its absence hold for the method and conditions named. Binding calls can cover weak binding; strength is not graded here.

B1: KIPK2_(277–948) (domain or fragment, UniProt Q9SJM3 277-948)
chain: PHMVIEDQLVEIDKHVTSLPSCSGSKVDTEELDKSIVSSARVKSEPTALSSGLKGKLDNFPGSGTEKSKLVSKVTRNIPRPKPRPKKKILLKKKLKIVVNSATKMVEEVDTSLEPSASQLLCQKCHCAVKSTSTENHPPSNTSHTTDKNVSIEADQESLASPRLIRIVKCNKEASKGSSDSCEVSDSGEAVIVMKQEVSPSNYSGKGDADEQIRANPTSSEKFDFSLSSKNSLGDYSSSTSMSEESNLSRFSCGNKPHMSMDVRWEAVKHVKLQYGSLGLRHFNLLKKLGCGDIGTVYLAELVGTNCLFAIKVMDNEFLARRKKTPRAQAERAILKMLDHPFLPTLYAQFTSDNLSCLVMEYCPGGDLHVLRQKQLSRCFSEPATRFYVAEILLALEYLHMLGVIYRDLKPENILVREDGHIMLTDFDLSLRCAVNPTLLRSTSPPEKDPARMSGPYSTSNCIQPLCIEPSCRVPCFSPRLLSTQARNQKPRKPKRPDLLTQQFRSLPQLVAEPTEARSNSFVGTHEYLAPEIIKGEGHGAAVDWWTFGVLLYELLYGKTPFKGYDNEETLSNVVYQNLKFPDSPLVSFQAKELIRRLLVKDPESRLGSEKGAAEIKRHPFFEGLNWALIRCAIPPELPDIYDNGATEATSPEGNNRYLECKAIGDHLEFEL
In the case of B1, the binding entry in assay [1], in assay [2], in assay [3] and in assay [4] was “no binding” throughout.

B2: KIPK1_(303–934) (domain or fragment, UniProt Q9LFA2 303-934)
chain: NISSSAVDSEQKGKLDDAPNSGTENGKTVRKVTRMIPRPKQPKKKILLKKKLKIGVVSATYPTKDDEEIVPSLDSSANQLLCQRCHCSLKSTSIDDNPPSYTSSHNPKICTDSLSSVSNKEAHQGSDENSSGSCNVSQSSEADIVIMKQDVSSSNNSGIGAMVEKETENPTSSEKFEFSLSSKDSLGDYSRSTSISEESNLSRFSCGNKPHMSMDVRWEAIKHIKVQYGSLGLRHFNLLKKLGCGDIGTVYLAELIGTNCLFAIKVMDNEFLARRKKSPRAQAEREILKMLDHPFLPTLYAQFTSDNLSCLVMEYCPGGDLHVLRQKQLGRCFPEPAARFYVAEILLALEYLHMLGIIYRDLKPENILVREDGHIMLTDFDLSLRCAVNPTLVRSNSPPGKDPARISGPYNTSNCIQPFCITEPSCQVSCFSPRLSSNQQQGRKPKRGDHLSKTQQHLSRSLPQLVAEPTEARSNSFVGTHEYLAPEIIKGEGHGAAVDWWTFGVLLYELLYGKTPFKGYNNDETLANVVLQNLKFPDSPLVSFQAKDLIRGLLVKEPENRLGSEKGSVEIKRHPFFEGLNWALIRCAIPPELPDFYEYGGGPEAAADSPGGSNNRYLECKAIGDHLEFELF
As for B2, the binding entry in assay [1], in assay [2], in assay [3] and in assay [4] was “no binding” each time.

B3: KIPK1_(84–582) (domain or fragment, UniProt Q9LFA2 84-582)
chain: SAGPSRTTSPSKRIASMKKPGTPQSPRFVGLSDSVSLKQALRDRCISKASEMAAQKRLSKSAAASPRVSEADRIKSLYNQVSNESTSSRSGLVPVDKGKGSLVEIPLMPVNDKPSSSKSVPQRFEDPSNPISEPSQAGTSFGLQGVGNQTREIKLLHRSNKPGSCLSSGSGDYEIELDENVASPSTHAFVEDDVIEIDKHVTSLPSHSSKKVNATELDKNISSSAVDSEQKGKLDDAPNSGTENGKTVRKVTRMIPRPKQPKKKILLKKKLKIGVVSATYPTKDDEEIVPSLDSSANQLLCQRCHCSLKSTSIDDNPPSYTSSHNPKICTDSLSSVSNKEAHQGSDENSSGSCNVSQSSEADIVIMKQDVSSSNNSGIGAMVEKETENPTSSEKFEFSLSSKDSLGDYSRSTSISEESNLSRFSCGNKPHMSMDVRWEAIKHIKVQYGSLGLRHFNLLKKLGCGDIGTVYLAELIGTNCLFAIKVMDNEFLARRKKSPR
As for B3, the binding result in assay [1], in assay [2], in assay [3] and in assay [4] was “binds” in each case.

The values above are taken from publication PMC4265151.
